The results in this text go back to publication PMC5192219.

The chains behind the UniProt entries cited, without tags or fusion partners.
UniProt Q9UER7: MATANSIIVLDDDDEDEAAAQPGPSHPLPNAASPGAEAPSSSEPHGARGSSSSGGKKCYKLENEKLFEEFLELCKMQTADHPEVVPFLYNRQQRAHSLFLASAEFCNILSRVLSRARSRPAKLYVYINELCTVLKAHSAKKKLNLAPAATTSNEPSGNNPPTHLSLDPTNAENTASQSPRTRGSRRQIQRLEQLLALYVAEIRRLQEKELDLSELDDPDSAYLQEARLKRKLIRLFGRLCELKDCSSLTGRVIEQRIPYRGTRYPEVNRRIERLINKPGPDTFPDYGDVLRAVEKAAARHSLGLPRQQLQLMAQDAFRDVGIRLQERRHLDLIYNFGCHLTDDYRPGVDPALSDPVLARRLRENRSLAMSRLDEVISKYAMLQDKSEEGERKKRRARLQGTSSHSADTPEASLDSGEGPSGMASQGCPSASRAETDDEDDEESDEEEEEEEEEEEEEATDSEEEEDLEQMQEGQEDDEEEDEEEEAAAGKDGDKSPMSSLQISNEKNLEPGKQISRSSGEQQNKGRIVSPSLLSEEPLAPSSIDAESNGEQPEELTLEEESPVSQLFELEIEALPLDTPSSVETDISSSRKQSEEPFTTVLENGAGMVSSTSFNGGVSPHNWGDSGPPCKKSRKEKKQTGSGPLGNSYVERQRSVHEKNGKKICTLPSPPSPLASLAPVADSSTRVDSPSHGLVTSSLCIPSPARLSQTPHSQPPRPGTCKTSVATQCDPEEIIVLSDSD
UniProt Q15672: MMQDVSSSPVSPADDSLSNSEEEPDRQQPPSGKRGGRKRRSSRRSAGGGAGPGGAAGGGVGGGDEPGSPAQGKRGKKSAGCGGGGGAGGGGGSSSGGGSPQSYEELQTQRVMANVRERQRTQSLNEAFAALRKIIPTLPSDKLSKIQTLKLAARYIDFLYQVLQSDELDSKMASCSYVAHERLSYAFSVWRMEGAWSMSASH
UniProt O95863: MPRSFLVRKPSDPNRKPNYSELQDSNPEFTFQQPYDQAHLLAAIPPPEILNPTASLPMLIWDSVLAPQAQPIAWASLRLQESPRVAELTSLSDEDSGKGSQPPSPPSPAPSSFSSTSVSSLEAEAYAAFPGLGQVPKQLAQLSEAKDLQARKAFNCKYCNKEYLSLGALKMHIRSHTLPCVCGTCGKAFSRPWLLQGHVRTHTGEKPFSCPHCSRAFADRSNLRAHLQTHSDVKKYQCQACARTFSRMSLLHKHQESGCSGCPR
UniProt Q13547: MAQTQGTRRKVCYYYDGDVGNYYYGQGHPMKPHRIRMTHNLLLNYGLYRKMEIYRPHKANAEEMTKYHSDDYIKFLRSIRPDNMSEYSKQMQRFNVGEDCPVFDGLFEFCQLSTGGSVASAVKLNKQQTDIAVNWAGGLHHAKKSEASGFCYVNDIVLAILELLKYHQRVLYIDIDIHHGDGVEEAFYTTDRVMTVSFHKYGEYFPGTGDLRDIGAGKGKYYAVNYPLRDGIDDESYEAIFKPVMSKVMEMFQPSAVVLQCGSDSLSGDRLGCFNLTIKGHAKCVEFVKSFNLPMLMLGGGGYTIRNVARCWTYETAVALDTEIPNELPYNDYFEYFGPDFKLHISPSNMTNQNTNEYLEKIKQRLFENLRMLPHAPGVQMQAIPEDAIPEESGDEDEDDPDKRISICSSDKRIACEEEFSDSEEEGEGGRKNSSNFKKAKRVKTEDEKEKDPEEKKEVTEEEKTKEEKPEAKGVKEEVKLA

No constants are given. Whether binding was seen depends on the method and setting. In cells and extracts the contact can be indirect. Some binding calls cover weakened binding; strength is not graded here. For part of these data: Tags and fused reporters may be left off the sequences shown.

The target in one experiment is T1, HA-Slug (UniProt O43623).
T1 sequence: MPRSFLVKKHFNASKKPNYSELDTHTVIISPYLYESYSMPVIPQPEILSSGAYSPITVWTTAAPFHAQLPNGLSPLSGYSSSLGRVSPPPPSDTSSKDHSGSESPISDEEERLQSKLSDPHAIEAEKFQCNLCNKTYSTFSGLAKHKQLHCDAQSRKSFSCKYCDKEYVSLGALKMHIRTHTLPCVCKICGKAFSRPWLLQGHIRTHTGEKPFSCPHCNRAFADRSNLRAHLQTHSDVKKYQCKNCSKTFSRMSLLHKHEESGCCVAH
Description: co-IP; H1299 cells co-transfected with the indicated plasmids for 30 h; lysates precipitated with anti-HA (Fig. 3d) or anti-Flag (Fig. 3e), immunoblotted.

For experiment [1], the target named is Flag-Daxx (UniProt Q9UER7). The description is as above.
The target of experiment [2] is T2, Slug, endogenous (human (endogenous in CL1-5)) (UniProt O43623).
T2 sequence: T1 sequence
The experiment is described as follows: co-IP; endogenous proteins; CL1-5 cells treated with MG132 (10 uM) for 5 h; lysates immunoprecipitated with anti-Daxx or anti-Slug antibodies (rabbit or goat IgG as controls), immunoblotted. Background: In western blotting, separated proteins are transferred to a membrane and probed.

A further experiment has as its target T3, GST-Slug (UniProt O43623).
T3 sequence: T1 sequence
Description: pull-down; in vitro GST pull-down (Supplementary Fig. 3b, 5b); method not given.

Another experiment deals with Twist (UniProt Q15672). Description: co-IP; Supplementary Fig. 13; cells and constructs not told.
In another experiment the target is Snail (UniProt O95863). The description is as above.
The target in experiment [3] is death domain-associated protein (Daxx), endogenous (human (endogenous in CL1-5)) (UniProt Q9UER7). The experiment is described as follows: co-IP; endogenous proteins; CL1-5 cells treated with MG132 (10 uM) for 5 h; lysates immunoprecipitated with anti-Daxx or anti-Slug antibodies (rabbit or goat IgG as controls), immunoblotted.
Experiment [4] addresses Flag-Daxx (UniProt Q9UER7). Description: co-IP; H1299 cells co-transfected 24 h with tagged Daxx and Slug plasmids, MG132 (10 uM) 5 h; IP lysis buffer 20 mM Tris pH 7.5, 100 mM NaCl, 1% Nonidet P-40; precipitated with anti-HA (Fig. 3a) or anti-Flag M2 (Fig. 3b) overnight at 4 C, protein G agarose.
Another experiment addresses HA-Daxx (UniProt Q9UER7). Described as above.

“histone deacetylase 1 (HDAC1) (from UniProt Q13547 1-482) (enzyme)”: the binding entry with HA-Slug and with Flag-Daxx [1] was “binds” in each case.
On to “death domain-associated protein (Daxx), endogenous (from UniProt Q9UER7 1-740)”, for which the binding entry in experiment [2] was “binds”.
Regarding “HA-Daxx, in vitro translated (from UniProt Q9UER7 1-740)”, in the experiment with GST-Slug, the binding result is “binds”.
HA-Daxx (from UniProt Q9UER7 1-740): the binding result with Twist and in the experiment with Snail was “binds” in each case.

B1: Slug, endogenous (protein, UniProt O43623 1-268)
chain: T1 sequence
Regarding B1, the binding entry in experiment [3] is on record as “binds”.

B2: HA-Slug (protein, UniProt O43623 1-268)
chain: T1 sequence
As for B2, the binding result in the experiment with Flag-Daxx [4] is “binds”.

B3: Flag-Slug (protein, UniProt O43623 1-268)
chain: T1 sequence
On to B3, for which, in the experiment with HA-Daxx, the binding entry is reported as “binds”.
